In patent EP0305174B1, “Peptide FK-565 useful for controlling helminthic parasites” (PITMAN-MOORE, INC., priority 1987, dated 1989):
Not every detail of the peptide structures is certain; ends, links or a residue may be inferred.

Experiments:
Format in all cases: in vivo, CF₁ male mice
[1] = tested on: Nippostrongylus brasiliensis; assay: Anthelmintic activity in experimentally infected mice, effect of time of treatment (Example 3)
[2] = tested on: Nippostrongylus brasiliensis; assay: Anthelmintic activity in experimentally infected mice, treatment before infection (Example 1); conditions: 1% squalene in HBSS emulsion, i.v. per table footnote; for Average Worms Recovered: adult worms in small intestine
[3] = tested on: Nippostrongylus brasiliensis; assay: Anthelmintic activity in experimentally infected mice, dose, vehicle and route comparison (Example 2); conditions: treated 24 h after infection
[4] = 25 µg s.c., day +1 relative to infection
[5] = 25 µg s.c., day +3 relative to infection
[6] = 25 µg s.c., day +6 relative to infection
[7] = 25 µg s.c., day -3 relative to infection
[8] = 25 µg s.c., day -6 relative to infection
[9] = 50 µg oral, day +1 relative to infection
[10] = 50 µg oral, day +3 relative to infection
[11] = 50 µg oral, day +6 relative to infection
[12] = 50 µg oral, day -1 relative to infection
[13] = 50 µg oral, day -3 relative to infection
[14] = 50 µg oral, day -6 relative to infection
[15] = 1 µg, s.c., 1% squalene in HBSS
[16] = 5 µg, i.v., 1% squalene in HBSS
[17] = 5 µg, s.c., 1% squalene in HBSS
[18] = 25 µg, i.v., 1% squalene in HBSS
[19] = 25 µg, s.c., 1% squalene in HBSS
[20] = 50 µg, s.c., 1% squalene in HBSS
[21] = 100 µg, s.c., 1% squalene in HBSS

CCCCCCC(=O)N[C@H](CCC(=O)N[C@@H](CCC[C@@H](N)C(=O)O)C(=O)N[C@H](C)C(=O)O)C(=O)O [FK-565]
% Efficacy [1, 4]: 55% | Worms [1, 4]: 91 ± 3 | % Efficacy [1, 5]: 47% | Worms [1, 5]: 106 ± 10 | % Efficacy [1, 6]: 47% | Worms [1, 6]: 111 ± 6 | Worms ([1]; 25 µg s.c., day -1 relative to infection): 87 ± 7 | % Efficacy [1, 7]: 53% | Worms [1, 7]: 95 ± 9 | % Efficacy [1, 8]: 41% | Worms [1, 8]: 117 ± 8 | % Efficacy [1, 9]: 56% | Worms [1, 9]: 89 ± 6 | % Efficacy [1, 10]: 55% | Worms [1, 10]: 89 ± 4 | % Efficacy [1, 11]: 50% | Worms [1, 11]: 106 ± 5 | % Efficacy [1, 12]: 64% | Worms [1, 12]: 72 ± 6 | % Efficacy [1, 13]: 52% | Worms [1, 13]: 97 ± 8 | % Efficacy [1, 14]: 46% | Worms [1, 14]: 105 ± 7 | Average Worms Recovered ([2]; 0.01 µg/mouse): 122 ± 18 | % Efficacy ([2]; 0.01 µg/mouse, vs non-treated infected): 47% | Average Worms Recovered ([2]; 0.1 µg/mouse): 180 ± 7 | % Efficacy ([2]; 0.1 µg/mouse, vs non-treated infected): 21% | Average Worms Recovered ([2]; 1 µg/mouse): 121 ± 6 | % Efficacy ([2]; 1 µg/mouse, vs non-treated infected): 47% | Average Worms Recovered ([2]; 5 µg/mouse): 121 ± 7 | % Efficacy ([2]; 5 µg/mouse, vs non-treated infected): 47% | Average Worms Recovered ([2]; 25 µg/mouse, ~300 L3 larvae): 91 ± 4 | % Efficacy ([2]; 25 µg/mouse, vs non-treated infected (229 worms)): 60% | % Efficacy [3, 15]: 45% | Average Worms Recovered [3, 15]: 121 ± 8 | % Efficacy [3, 16]: 56% | Average Worms Recovered [3, 16]: 97 ± 11 | % Efficacy [3, 17]: 49% | Average Worms Recovered [3, 17]: 112 ± 6 | % Efficacy ([3]; 5 µg, s.c., in HBSS): 51% | Average Worms Recovered ([3]; 5 µg, s.c., in HBSS): 108 ± 9 | % Efficacy [3, 18]: 63% | Average Worms Recovered [3, 18]: 82 ± 6 | % Efficacy [3, 19]: 60% | Average Worms Recovered [3, 19]: 88 ± 7 | % Efficacy ([3]; 25 µg, s.c., in HBSS): 61% | Average Worms Recovered ([3]; 25 µg, s.c., in HBSS): 87 ± 6 | % Efficacy [3, 20]: 65% | Average Worms Recovered [3, 20]: 78 ± 7 | % Efficacy [3, 21]: 71% | Average Worms Recovered [3, 21]: 65 ± 8
